From patent publication US9228015B2, “Nogo receptor antagonists and methods of increasing neurite outgrowth” (Biogen Idec MA Inc., priority 2006, dated 2016)
For some assays here: At least one compound was matched to its structure with a doubt left. Some results were stated once for a whole list of compounds, not compound by compound.

B1: sNogoR310-Fc: fusion protein comprising amino acids 26-310 of rat Nogo receptor-1 and a rat Fc fragment (protein)
chain: PCPGACVCYNEPKVTTSRPQQGLQAVPAGIPASSQRIFLHGNRISYVPAASFQSCRNLTILWLHSNALAGIDAAAFTGLTLLEQLDLSDNAQLRVVDPTTFRGLGHLHTLHLDRCGLQELGPGLFRGLAALQYLYLQDNNLQALPDNTFRDLGNLTHLFLHGNRIPSVPEHAFRGLHSLDRLLLHQNHVARVHPHAFRDLGRLMTLYLFANNLSMLPAEVLVPLRSLQYLRLNDNPWVCDCRARPLWAWLQKFRGSSSGVPSNLPQRLAGRDLKRLATSDLEGCA
modifications: left off: a dimerising Fc or GST
notes: fusion protein comprising amino acids 26-310 of rat Nogo receptor-1 and a rat Fc fragment

What was measured:
[1] = tested on: chick dorsal root ganglion neurons, myelin-induced neurite outgrowth inhibition; test: Neurite outgrowth of embryonic day 13 chick DRG neurons on myelin (Example 29); type: cell-based
Description: In investigating combined treatment with methyprednisolone (MP) and NgR(310)ecto-Fc for spinal cord injury (SCI), we sought to verify that these reagents have independent mechanisms of action. Briefly, myelin was dried overnight in poly-L-lysine-precoated plates (Becton Dickinson, Bedford, Mass., USA) at 80 or 400 ng/well (2.5 and 12.7 ng/mm^2, respectively). Wells were then coated with 10 µg/ml laminin (Calbiochem, La Jolla, Calif., USA) for 1 hour at foom temperature (22-24 C). Embryonic day 13 chick dorsal root ganglion neurons were dissociated and plated for 6-8 hours as previously described (GrandPre et al., 2000; Fournier et al., 2001). Neurons were treated with 8 μM NgR(310)ecto-Fc in the presence or absence of 10 μg/nl MP (Pharmacia, Kalamazoo, Mich., USA) for the entire outgrowth period. Neurons were then fixed and stained with βIII tubulin antibody (Covance, Princeton, N.J., USA) and neurite outgrowth was quantified using an automated cellular imaging and analysis system (Axon Instrument, Union City, Calif.; USA). Neurite outgrowth per cell was normalized to the average of duplicate control wells for each experiment (n=3). […] These in vitro data support the hypothesis that MP and NgR(310)ecto-Fc will enhance SCI recovery in a sequentially effective manner.

[2] = tested on: rats with mid-thoracic dorsal hemisection injury; test: Intrathecal sNogoR310-Fc in rats with mid-thoracic dorsal hemisection: axon tracing and histology; type: in vivo, rat; details: 1-10 mm caudal
Description: We isolated spinal cord 4 mm rostral to and 4 mm caudal to the lesion site (8 mm long in total) from transgenic mice and embedded it in a glutaraldehyde-polymerized albumin matrix, and cut parasagittally on a vibratome (30 μm thick). We collected transverse sections (50 μm) from the spinal cord 5-7 mm rostral to and 5-7 mm caudal to the injury site. For sNogoR310-Fc injection experiments in rats, the spinal cord extending from 10 mm rostral to 10 mm caudal from the lesion site was cut parasaggitally (50 μm) on a vibrating microtome. Transverse sections were collected from the spinal cord 11-16 mm rostral to and 11-16 mm caudal to the injury site. We incubated the sections with avidin-biotin-peroxidase complex and visualized the BDA tracer by nickel-enhanced diaminobenzidine HRP reaction (Grandpre, Nature 417:547-551 (2002)). We processed some sections for serotonin immunohistochemistry (anti-5-HT antibody) by indirect immunofluorescence. To visualize the lesion area, we double-stained some sections with antibodies directed against GFAP (Sigma®, St. Louis, Mo.). We mounted, dehydrated and covered the sections with mounting medium.
We fused the ligand binding domain (27-310) of rat Nogo receptor-1 to the rat IgG1 Fc domain to promote stability and purification. We purified protein from stably transfected CHO cells. […]

Molecule	effect of presence of MP on axon growth stimulation by NgR(310)ecto-Fc [1]	number of sprouts (≧200 μm in length) relative to control groups [2]
C[C@H]1C[C@@H]2[C@H]([C@@H](O)C[C@@]3(C)[C@H]2CC[C@]3(O)C(=O)CO)[C@@]2(C)C=CC(=O)C=C12 [MP, methylprednisolone]	did not alter	–
B1	–	20-40 times
